Results deposited as PubChem BioAssay AID1224830 (NIAID, 2016).
Shown is a random part of about 18,000 deposited reagents. About 2,900 of all reagents (16%) count as active. 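Calls are made per well; low scores hint the gene aids the LPS response, high scores that it dampens it.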 Repeated entries: four replicate wells of each siRNA pool.

Screen: 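Regulators of TLR4 signalling towards TNF-alpha in macrophage-like cells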 (primary screen)
Cells: human THP-1 monocytic leukaemia cells, TNF dual-luciferase reporter clone, PMA-differentiated to macrophage-like cells
Knock-down reagent: siRNA pool against human genes, 50 nM
Timing: LPS for 4 h, given about 3 days after siRNA transfection
Conditions: bacterial LPS (TLR4 ligand), 10 ng/ml
Measured: 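TNF firefly reporter luminescence divided by renilla, normalised to the plate median, then turned into a robust z-score for each replicate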
Reading the numbers: TNF reporter robust z-score: higher = stronger TNF reporter response to LPS
Call rule: 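a well is active when its z-score exceeds 2.8 or falls below -1.5; control wells carry no call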

Gene | PubChem SID | TNF reporter robust z-score | outcome
TMEM39A | SID315457538 | 0.4 | inactive
TMEM39A | SID315457538 | 0.17 | inactive
TMEM39A | SID315457538 | -0.25 | inactive
TMEM39A | SID315457538 | 0.96 | inactive
CSF1R | SID315448120 | -1.85 | active
CSF1R | SID315448120 | -1.25 | inactive
CSF1R | SID315448120 | -1.75 | active
CSF1R | SID315448120 | -0.92 | inactive
MAST2 | SID315455019 | 1.25 | inactive
MAST2 | SID315455019 | 1.08 | inactive
MAST2 | SID315455019 | -1.04 | inactive
MAST2 | SID315455019 | -0.93 | inactive
TBC1D25 | SID315450340 | -0.46 | inactive
TBC1D25 | SID315450340 | 1.01 | inactive
TBC1D25 | SID315450340 | -0.15 | inactive
TBC1D25 | SID315450340 | -1.17 | inactive
CPAMD8 | SID315455949 | -0.67 | inactive
CPAMD8 | SID315455949 | -0.24 | inactive
CPAMD8 | SID315455949 | -1.41 | inactive
CPAMD8 | SID315455949 | -1.55 | active
CNGB3 | SID315457127 | -1.02 | inactive
CNGB3 | SID315457127 | -0.97 | inactive
CNGB3 | SID315457127 | 0.06 | inactive
CNGB3 | SID315457127 | 0.54 | inactive
SLC6A17 | SID315464510 | 2.79 | inactive
SLC6A17 | SID315464510 | -0.4 | inactive
SLC6A17 | SID315464510 | -0.02 | inactive
SLC6A17 | SID315464510 | -0.12 | inactive
LCNL1 | SID315464794 | – | inactive
LCNL1 | SID315464794 | -0.88 | inactive
LCNL1 | SID315464794 | -1.09 | inactive
LCNL1 | SID315464794 | -0.72 | inactive
RFC4 | SID315451106 | -0.33 | inactive
RFC4 | SID315451106 | 0.08 | inactive
RFC4 | SID315451106 | 0.03 | inactive
RFC4 | SID315451106 | 0.88 | inactive
TAOK3 | SID315456662 | -1.35 | inactive
TAOK3 | SID315456662 | -1.05 | inactive
TAOK3 | SID315456662 | -1.64 | active
TAOK3 | SID315456662 | -0.37 | inactive
DCTN6 | SID315454287 | -0.32 | inactive
DCTN6 | SID315454287 | -0.16 | inactive
DCTN6 | SID315454287 | -0.13 | inactive
DCTN6 | SID315454287 | 0.05 | inactive
LIMA1 | SID315456730 | 0.4 | inactive
LIMA1 | SID315456730 | 1.9 | inactive
LIMA1 | SID315456730 | 0.29 | inactive
LIMA1 | SID315456730 | 1.86 | inactive
TMEM179 | SID315464466 | -0.69 | inactive
TMEM179 | SID315464466 | 0.3 | inactive
TMEM179 | SID315464466 | 1.29 | inactive
SNX16 | SID315458815 | -0.73 | inactive
SNX16 | SID315458815 | 0.48 | inactive
SNX16 | SID315458815 | 0 | inactive
SNX16 | SID315458815 | 0.36 | inactive
NDUFC1 | SID315450186 | 0.36 | inactive
NDUFC1 | SID315450186 | -0.32 | inactive
NDUFC1 | SID315450186 | 0.24 | inactive
NDUFC1 | SID315450186 | 0.11 | inactive
NUDT17 | SID315463020 | -1.31 | inactive
NUDT17 | SID315463020 | -1.71 | active
NUDT17 | SID315463020 | -1.62 | active
NUDT17 | SID315463020 | 0.03 | inactive
ARHGEF16 | SID315455984 | 0.65 | inactive
ARHGEF16 | SID315455984 | 1.86 | inactive
ARHGEF16 | SID315455984 | 1.07 | inactive
ARHGEF16 | SID315455984 | 1.85 | inactive
DNAJC8 | SID315454798 | -0.93 | inactive
DNAJC8 | SID315454798 | -0.25 | inactive
DNAJC8 | SID315454798 | 0 | inactive
DNAJC8 | SID315454798 | -0.87 | inactive
NFKBIB | SID315450235 | -1.29 | inactive
NFKBIB | SID315450235 | -0.96 | inactive
NFKBIB | SID315450235 | -0.94 | inactive
NFKBIB | SID315450235 | -0.38 | inactive
KLHL9 | SID315457960 | -0.4 | inactive
KLHL9 | SID315457960 | 0.5 | inactive
KLHL9 | SID315457960 | -0.37 | inactive
KLHL9 | SID315457960 | 0.3 | inactive
PDXP | SID315458230 | 0.99 | inactive
PDXP | SID315458230 | 0.62 | inactive
PDXP | SID315458230 | 1.3 | inactive
PDXP | SID315458230 | 1.97 | inactive
LVRN | SID315463147 | 0.72 | inactive
LVRN | SID315463147 | 0.12 | inactive
LVRN | SID315463147 | 0.6 | inactive
LVRN | SID315463147 | 0.05 | inactive
LVRN | SID315463147 | -0.75 | inactive
LVRN | SID315463147 | -0.71 | inactive
LVRN | SID315463147 | -0.37 | inactive
LVRN | SID315463147 | -0.13 | inactive
CDK2AP2 | SID315453957 | 0.19 | inactive
CDK2AP2 | SID315453957 | 0.7 | inactive
CDK2AP2 | SID315453957 | 0.93 | inactive
CDK2AP2 | SID315453957 | 1.26 | inactive
MICA | SID315449972 | -0.06 | inactive
MICA | SID315449972 | -0.45 | inactive
MICA | SID315449972 | -0.49 | inactive
MICA | SID315449972 | -0.18 | inactive
MTCH2 | SID315455434 | 0.27 | inactive
MTCH2 | SID315455434 | 0.85 | inactive
MTCH2 | SID315455434 | -0.22 | inactive
MTCH2 | SID315455434 | -0.17 | inactive
TSLIG3C | SID315462354 | -0.25 | inactive
TSLIG3C | SID315462354 | -0.46 | inactive
TSLIG3C | SID315462354 | -0.71 | inactive
TSLIG3C | SID315462354 | -0.58 | inactive
ELOVL4 | SID315451681 | -0.17 | inactive
ELOVL4 | SID315451681 | -0.15 | inactive
ELOVL4 | SID315451681 | 0.02 | inactive
ELOVL4 | SID315451681 | 2.13 | inactive

Records listed above with an active call:
Gene | PubChem SID | TNF reporter robust z-score | outcome
CSF1R | SID315448120 | -1.85 | active
CSF1R | SID315448120 | -1.75 | active
CPAMD8 | SID315455949 | -1.55 | active
TAOK3 | SID315456662 | -1.64 | active
NUDT17 | SID315463020 | -1.71 | active
NUDT17 | SID315463020 | -1.62 | active
